# The list shows a part of the results.
# Experiments:
# Experiment in all cases: glycan array binding signal (z-score within array); higher = stronger binding
# Details in all cases: glycan notation: IUPAC condensed, linker removed
# Gal6S(b1-4)Glc = target: Gal6S(b1-4)Glc
# Method in brief: (§1)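 The binding signal is a Z-score computed within each array and averaged over linkers. Arrays of the same protein sequence at different concentrations or buffers were also averaged together. Data originate from 3228 arrays in the Consortium for Functional Glycomics database, kept only where the protein sequence was available.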
# Gal6S(b1-4)Glc6S = target: Gal6S(b1-4)Glc6S
# Method in brief: as §1
# Gal6S(b1-4)GlcNAc = target: Gal6S(b1-4)GlcNAc
# Method in brief: as §1
# Gal6S(b1-4)GlcNAc6S = target: Gal6S(b1-4)GlcNAc6S
# Method in brief: as §1
# GalNAc(a1-3)Gal = target: GalNAc(a1-3)Gal
# Method in brief: as §1
# GalNAc(a1-3)GalNAc = target: GalNAc(a1-3)GalNAc
# Method in brief: as §1
# [1] = target: GalNAc(a1-3)GalNAc(b1-3)Gal(a1-4)Gal(b1-4)Glc
# Method in brief: as §1
# [2] = target: GalNAc(a1-3)GalNAc(b1-3)Gal(a1-4)Gal(b1-4)GlcNAc
# Method in brief: as §1
# GalNAc(b1-3)Gal = target: GalNAc(b1-3)Gal
# Method in brief: as §1
# [3] = target: GalNAc(b1-3)Gal(a1-4)Gal(b1-4)GlcNAc
# Method in brief: as §1
# [4] = target: GalNAc(b1-3)Gal(a1-4)Gal(b1-4)GlcNAc(b1-3)Gal(b1-4)Glc
# Method in brief: as §1
# [5] = target: GalNAc(b1-3)Gal(a1-6)Gal(b1-4)Glc
# Method in brief: as §1
# GalNAc(b1-3)GalNAc = target: GalNAc(b1-3)GalNAc
# Method in brief: as §1
# GalNAc(b1-3)GlcNAc = target: GalNAc(b1-3)GlcNAc
# Method in brief: as §1
# GalNAc(b1-4)Gal(b1-4)Glc = target: GalNAc(b1-4)Gal(b1-4)Glc
# Method in brief: as §1
# GalNAc(b1-4)GlcNAc = target: GalNAc(b1-4)GlcNAc
# Method in brief: as §1
# [6] = target: GalNAc(b1-4)GlcNAc(b1-2)Man
# Method in brief: as §1
# [7] = target: GalNAc(b1-4)GlcNAc(b1-2)Man(a1-3)[GalNAc(b1-4)GlcNAc(b1-2)Man(a1-6)]Man(b1-4)GlcNAc(b1-4)GlcNAc
# Method in brief: as §1
# [8] = target: GalNAc(b1-4)GlcNAc(b1-3)GalNAc(b1-4)GlcNAc
# Method in brief: as §1
# GalNAc(b1-4)GlcNAc6S = target: GalNAc(b1-4)GlcNAc6S
# Method in brief: as §1
# GalNAc(b1-6)GalNAc = target: GalNAc(b1-6)GalNAc
# Method in brief: as §1
# GalNAc3S(b1-4)GlcNAc = target: GalNAc3S(b1-4)GlcNAc
# Method in brief: as §1
# GalNAc3S(b1-4)GlcNAc3S = target: GalNAc3S(b1-4)GlcNAc3S
# Method in brief: as §1
# [9] = target: GalNAc3S(b1-4)[Fuc(a1-3)]GlcNAc
# Method in brief: as §1
# GalNAc4S6S(b1-4)GlcNAc = target: GalNAc4S6S(b1-4)GlcNAc
# Method in brief: as §1
# GalNAc6S(b1-4)GlcNAc = target: GalNAc6S(b1-4)GlcNAc
# Method in brief: as §1
# Glc(a1-4)Glc = target: Glc(a1-4)Glc
# Method in brief: as §1
# [10] = target: Glc(a1-4)Glc(a1-4)Glc(a1-4)Glc
# Method in brief: as §1
# Glc(a1-6)Glc(a1-6)Glc = target: Glc(a1-6)Glc(a1-6)Glc
# Method in brief: as §1
# [11] = target: Glc(a1-6)Glc(a1-6)Glc(a1-6)Glc
# Method in brief: as §1
# Glc(b1-4)Glc = target: Glc(b1-4)Glc
# Method in brief: as §1
# Glc(b1-6)Glc = target: Glc(b1-6)Glc
# Method in brief: as §1
# GlcA(b1-3)Gal = target: GlcA(b1-3)Gal
# Method in brief: as §1
# GlcA(b1-3)GlcNAc = target: GlcA(b1-3)GlcNAc
# Method in brief: as §1
# GlcA(b1-6)Gal = target: GlcA(b1-6)Gal
# Method in brief: as §1
# [12] = target: GlcA3S(b1-3)Gal(b1-4)GlcNAc(b1-2)Man
# Method in brief: as §1
# [13] = target: GlcA3S(b1-3)Gal(b1-4)GlcNAc(b1-3)Gal(b1-4)Glc
# Method in brief: as §1
# [14] = target: GlcNAc(a1-3)Gal(b1-4)GlcNAc
# Method in brief: as §1
# [15] = target: GlcNAc(a1-4)Gal(b1-3)GlcNAc
# Method in brief: as §1
# [16] = target: GlcNAc(a1-4)Gal(b1-4)GalNAc
# Method in brief: as §1
# [17] = target: GlcNAc(a1-4)Gal(b1-4)GlcNAc
# Method in brief: as §1
# [18] = target: GlcNAc(a1-4)Gal(b1-4)GlcNAc(b1-3)Gal(b1-4)Glc
# Method in brief: as §1
# [19] = target: GlcNAc(a1-4)Gal(b1-4)GlcNAc(b1-3)Gal(b1-4)GlcNAc
# Method in brief: as §1
# [20] = target: GlcNAc(a1-4)Gal(b1-4)GlcNAc(b1-3)Gal(b1-4)GlcNAc(b1-3)Gal(b1-4)GlcNAc
# Method in brief: as §1
# [21] = target: GlcNAc(a1-4)Gal(b1-4)GlcNAc(b1-3)Gal(b1-4)[Fuc(a1-3)]GlcNAc(b1-3)Gal(b1-4)[Fuc(a1-3)]GlcNAc
# Method in brief: as §1
binder,measurement,setting,value
"RsaA-N-term (Caulobacter crescentus), P35828 (protein) MAYTTAQLVTAYTNANLGKAPDAATTLTLDAYATQTQTGGLSDAAALTNTLKLVNSTTAVAIQTYQFFTGVAPSAAGLDFLVDSTTNTNDLNDAYYSKFAQENRFINFSINLATGAGAGATAFAAAYTGVSYAQTVATAYDKIIGNAVATAAGVDVAAAVAFLSRQANIDYLTAFVRANTPFTAAADIDLAVKAALIGTILNAATVSGIGGYATATAAMINDLSDGALSTDNAAGVNLFTAYPSSGVSGSTLSLTTGTDTLTGTANNDTFVAGEVAGDGSGWSHPQFEKGG",glycan array binding signal (z-score),Gal6S(b1-4)Glc,-0.512
same,glycan array binding signal (z-score),Gal6S(b1-4)Glc6S,-0.895
same,glycan array binding signal (z-score),Gal6S(b1-4)GlcNAc,-0.724
same,glycan array binding signal (z-score),Gal6S(b1-4)GlcNAc6S,0.014
same,glycan array binding signal (z-score),GalNAc(a1-3)Gal,-0.212
same,glycan array binding signal (z-score),GalNAc(a1-3)GalNAc,0.039
same,glycan array binding signal (z-score),[1],0.787
same,glycan array binding signal (z-score),[2],0.104
same,glycan array binding signal (z-score),GalNAc(b1-3)Gal,-0.084
same,glycan array binding signal (z-score),[3],-1.24
same,glycan array binding signal (z-score),[4],2.08
same,glycan array binding signal (z-score),[5],-0.027
same,glycan array binding signal (z-score),GalNAc(b1-3)GalNAc,0.812
same,glycan array binding signal (z-score),GalNAc(b1-3)GlcNAc,0.169
same,glycan array binding signal (z-score),GalNAc(b1-4)Gal(b1-4)Glc,0.597
same,glycan array binding signal (z-score),GalNAc(b1-4)GlcNAc,0.502
same,glycan array binding signal (z-score),[6],0.558
same,glycan array binding signal (z-score),[7],-0.594
same,glycan array binding signal (z-score),[8],-0.44
same,glycan array binding signal (z-score),GalNAc(b1-4)GlcNAc6S,0.38
same,glycan array binding signal (z-score),GalNAc(b1-6)GalNAc,-0.64
same,glycan array binding signal (z-score),GalNAc3S(b1-4)GlcNAc,-0.554
same,glycan array binding signal (z-score),GalNAc3S(b1-4)GlcNAc3S,0.081
same,glycan array binding signal (z-score),[9],-0.773
same,glycan array binding signal (z-score),GalNAc4S6S(b1-4)GlcNAc,-0.121
same,glycan array binding signal (z-score),GalNAc6S(b1-4)GlcNAc,0.854
same,glycan array binding signal (z-score),Glc(a1-4)Glc,-0.053
same,glycan array binding signal (z-score),[10],-1.59
same,glycan array binding signal (z-score),Glc(a1-6)Glc(a1-6)Glc,0.894
same,glycan array binding signal (z-score),[11],-1.03
same,glycan array binding signal (z-score),Glc(b1-4)Glc,-0.512
same,glycan array binding signal (z-score),Glc(b1-6)Glc,-0.435
same,glycan array binding signal (z-score),GlcA(b1-3)Gal,-1.22
same,glycan array binding signal (z-score),GlcA(b1-3)GlcNAc,-0.246
same,glycan array binding signal (z-score),GlcA(b1-6)Gal,-0.029
same,glycan array binding signal (z-score),[12],-0.383
same,glycan array binding signal (z-score),[13],-1.01
same,glycan array binding signal (z-score),[14],0.371
same,glycan array binding signal (z-score),[15],0.008
same,glycan array binding signal (z-score),[16],-0.739
same,glycan array binding signal (z-score),[17],-0.154
same,glycan array binding signal (z-score),[18],-0.491
same,glycan array binding signal (z-score),[19],0.269
same,glycan array binding signal (z-score),[20],-0.211
same,glycan array binding signal (z-score),[21],-0.566

# 9 entries from above, tab-delimited:
binder	measurement	setting	value
RsaA-N-term (Caulobacter crescentus), P35828 (protein) MAYTTAQLVTAYTNANLGKAPDAATTLTLDAYATQTQTGGLSDAAALTNTLKLVNSTTAVAIQTYQFFTGVAPSAAGLDFLVDSTTNTNDLNDAYYSKFAQENRFINFSINLATGAGAGATAFAAAYTGVSYAQTVATAYDKIIGNAVATAAGVDVAAAVAFLSRQANIDYLTAFVRANTPFTAAADIDLAVKAALIGTILNAATVSGIGGYATATAAMINDLSDGALSTDNAAGVNLFTAYPSSGVSGSTLSLTTGTDTLTGTANNDTFVAGEVAGDGSGWSHPQFEKGG	glycan array binding signal (z-score)	GalNAc(a1-3)Gal	-0.212
same	glycan array binding signal (z-score)	[2]	0.104
same	glycan array binding signal (z-score)	[3]	-1.24
same	glycan array binding signal (z-score)	[4]	2.08
same	glycan array binding signal (z-score)	[5]	-0.027
same	glycan array binding signal (z-score)	GalNAc(b1-3)GalNAc	0.812
same	glycan array binding signal (z-score)	Glc(a1-6)Glc(a1-6)Glc	0.894
same	glycan array binding signal (z-score)	Glc(b1-4)Glc	-0.512
same	glycan array binding signal (z-score)	[17]	-0.154

# Reference: the supplement of paper PMC8728848
